Results of single-concentration screens

Sequences of proteins named here, by UniProt entry; tags and fusion partners are left off.
UniProt P9WPC5, whole entry: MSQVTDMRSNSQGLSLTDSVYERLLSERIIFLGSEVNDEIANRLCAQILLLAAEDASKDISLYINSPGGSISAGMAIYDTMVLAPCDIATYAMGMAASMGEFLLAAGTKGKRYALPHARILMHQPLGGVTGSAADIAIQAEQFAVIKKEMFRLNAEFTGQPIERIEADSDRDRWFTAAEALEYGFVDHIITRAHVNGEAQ
UniProt P9WPC3, whole entry partner: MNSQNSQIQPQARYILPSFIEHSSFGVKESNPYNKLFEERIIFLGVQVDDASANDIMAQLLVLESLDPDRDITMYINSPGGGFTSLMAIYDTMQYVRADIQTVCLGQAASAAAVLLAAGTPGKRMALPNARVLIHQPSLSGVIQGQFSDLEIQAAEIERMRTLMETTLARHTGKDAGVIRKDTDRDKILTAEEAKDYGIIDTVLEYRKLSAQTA

Measurements from “University of Dundee, Small-Polar-MMV Screening Library” (2021), ChEMBL document CHEMBL3988442.

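Protease assay of ClpP1P2, read by the AMC dye that it sets free. Target: ClpP1P2, Mycobacterium tuberculosis (UniProt P9WPC5 and UniProt P9WPC3). Tested at 50 µM. Higher reads as stronger inhibition, judged from the few compounds that gave an IC50. Most other retested compounds had strongly negative values. Size under these conditions: about 69,000 compounds, about 10 of them at 50% or above in at least one test.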

Each number is a percent effect as filed.
The controls that fix the scale are not given in the record; negative values are as filed.
This is an unselected part of the compounds tested.

compound: CNc1ncc2c(n1)CN(Cc1ccc(Cl)cc1)C2=O
percent effect: -23.71

compound: CCOCC1CN(C(=O)c2ccco2)Cc2nn(C)cc21 (centres unmarked)
percent effect: -3.136

compound: CC(C)Cc1nc(CS(=O)(=O)c2ccccc2)no1
percent effect: -6.149

compound: COc1ccc(C(=O)NCCCn2ccnc2)c(OC)n1
percent effect: 14.21

compound: NCCn1cc(C(=O)N2CCCCCC2c2ccco2)nn1 (centres unmarked)
percent effect: 3.483

compound: Cc1cc(=O)n(CC(=O)Nc2ccc(C(N)=O)cc2)nc1C
percent effect: -16.03

compound: Cc1ccc(NC2CCN(C(=O)CCCc3ccccn3)CC2)cc1
percent effect: 1.433

compound: CC(C)c1cc(C(=O)N2CCCC2c2nc(-c3ccccc3)no2)[nH]n1 (centres unmarked)
percent effect: -3.007

compound: COc1ccccc1N1CCC(N2CCOCC(CO)C2)CC1 (centres unmarked)
percent effect: 11.63

compound: CCn1cnnc1C1CCN(C(=O)c2ccc3ccccc3n2)CC1
percent effect: 0.947

compound: CCCn1nc2c(cc1=O)CN(Cc1nc(-c3ccco3)no1)CC2
percent effect: -47.59

compound: COCc1noc(CCC(=O)c2ccc3c(c2)OCCO3)n1
percent effect: -1.458

compound: COC[C@@H]1CCC[C@@]12CN(Cc1ccc(C)s1)CCO2
percent effect: -5.73

compound: O=C1CC2(CCN(Cc3ccccn3)C2)CN1c1cccnc1 (centres unmarked)
percent effect: -3.608

compound: COc1cccc(N2CCC(CNC(=O)NCc3ccco3)C2)c1 (centres unmarked)
percent effect: 11.15

compound: Cc1cnn(CC2CN(Cc3nnc(-c4occc4C)o3)CCO2)c1 (centres unmarked)
percent effect: 10.83

compound: COCC(=O)Nc1cc(Br)cnc1OCC(F)(F)F
percent effect: -5.352

compound: Cc1cnnn1Cc1nnn2c1CN(Cc1ccccn1)CCC2
percent effect: 2.556

compound: COc1ccc(-c2cn3c(n2)CO[C@@H](CNCc2ccccn2)C3)cc1
percent effect: -10.99

compound: Cn1cnnc1C1CCN(C(=O)CCOc2ccc(Cl)cc2)CC1
percent effect: -15.34

compound: CCOC(CC)C(=O)NCc1ccnc(Oc2ccc(F)cc2)c1 (centres unmarked)
percent effect: -15.17

compound: CC(C)c1cc(NC(=O)CNC2CCc3nc(C(C)C)nn3C2)on1 (centres unmarked)
percent effect: -2.327

compound: O=S(=O)(NCCSc1nccn1C1CC1)c1ccccc1
percent effect: -5.664

compound: COc1cc(OC)cc(N2CCC(NC(=O)c3ccc[nH]3)CC2)c1
percent effect: -9.422

compound: Cc1cccc(NC(=O)NCC2(N3CCOCC3)CCSC2)c1 (centres unmarked)
percent effect: 10.68

compound: COc1ccc(C(C)NC(=O)NCCNc2ccccn2)c(OC)c1 (centres unmarked)
percent effect: 4.116

compound: CCOCCCC(=O)NCc1ccnc(N2CCN(C)CC2)c1
percent effect: -10.14

compound: COc1ccc(OCC(=O)n2nc(C)c(C)c2C)cc1
percent effect: -13.22

compound: CN(C)[C@@H]1CCN(S(C)(=O)=O)[C@H]1Cc1ccccc1
percent effect: -7.433

compound: O=C(C1CCCN(Cc2cccc(F)c2)C1)N1CCc2sccc2C1 (centres unmarked)
percent effect: -13.07

compound: CN(C)C(=O)CN1C[C@H]2CCN(c3ncccn3)CC[C@H]2S1(=O)=O
percent effect: 0.5876

compound: Cc1cc(C)c2cc(CNCc3ccccc3)c3nn(C)c(=O)n3c2c1
percent effect: -15.93

compound: CCC(CC)C(=O)Nc1ccc2oc(=O)n(CCN(C)C)c2c1
percent effect: 7.007

compound: OCc1nnc2n1CCN(c1cnccn1)C2
percent effect: 8.188

compound: CC(=O)NCCCNC(=O)N(C)C(C)Cc1ccc(Cl)cc1 (centres unmarked)
percent effect: -3.176

compound: Cc1nccn1C1CCCN(C(=O)c2ccc3c(c2)CCC3)C1 (centres unmarked)
percent effect: -30.99

compound: CCN(Cc1cnn(C)c1)C[C@H]1CC[C@@H](Cc2ccc(C)nc2)O1
percent effect: -0.8372

compound: COc1c(C2CCCN2CC(=O)Nc2nccs2)c(C)nn1C (centres unmarked)
percent effect: 3.266

compound: CC(C)c1nnc2ccc(N3CCC(C(=O)Nc4nccs4)CC3)nn12
percent effect: 3.474

compound: O=C(CN1CCCCC1Cn1cncn1)NC1CCN(C2CC2)CC1 (centres unmarked)
percent effect: -13.51

compound: CC(C)N1CCCn2c(nc(CNC(=O)c3nccn3C)cc2=O)C1
percent effect: 5.366

compound: O=C(Nc1cccnc1-n1cncn1)N(C1CCCC1)C1CC1
percent effect: 0.006454

compound: CC(C)N1CCO[C@@H]2CN(C(=O)Cc3cccs3)CC[C@@H]2C1
percent effect: -13.3

compound: Nc1nnnn1NCc1ccccc1C(F)(F)F
percent effect: -26.12

The first 5 entries again:

compound,percent effect
CNc1ncc2c(n1)CN(Cc1ccc(Cl)cc1)C2=O,-23.71
CCOCC1CN(C(=O)c2ccco2)Cc2nn(C)cc21 (centres unmarked),-3.136
CC(C)Cc1nc(CS(=O)(=O)c2ccccc2)no1,-6.149
COc1ccc(C(=O)NCCCn2ccnc2)c(OC)n1,14.21
NCCn1cc(C(=O)N2CCCCCC2c2ccco2)nn1 (centres unmarked),3.483